In the supplement of paper PMC8256030:
Where “and” joins values, the source holds several entries; their conditions need not be identical. Equal values may be shown once. Where a name gives a salt, the structure may show the parent alone. This is one part of the list. This data set is noisy: repeats of one test often differ as much as different tests do.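 HEK293T cells were given each compound shortly before transfection with a reporter in which red mCherry is followed by the SARS-CoV-2 frameshift element and then GFP in the −1 frame, so GFP appears only after frameshifting.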

Test system: HEK293T
Assay: percent viability (nuclei count) relative to control; higher = more viable cells
Conditions: 10 µM; 24 h

| SMILES | percent viability |
| --- | --- |
| COc1c2ccoc2cc2oc(CO[C@@H]3O[C@H](CO)[C@@H](O)[C@H](O)[C@H]3O)cc(=O)c12 [khelloside] | 106% |
| OCC(S)CS (centres undefined) [dimercaprol] | 143% |
| Nc1ccc2cc3ccc(N)cc3nc2c1 [proflavine] | 133% |
| CCc1ccc(C(=O)C(C)CN2CCCCC2)cc1 (centres undefined) [eperisone] | 193% |
| N#Cc1ccc2c(c1)N(CCCN1CCC(O)CC1)c1ccccc1S2 [periciazine] | 52.9% |
| O=c1oc2cc(O)ccc2s1 [tioxolone] | 336% |
| c1ccc(CCNc2nc(-c3ccccc3)cs2)cc1 [fanetizole] | 229% |
| COc1ccccc1OCC(O)CO (centres undefined) [guaifenesin] | 210% and 112% |
| CCC(c1ccccc1)c1c(O)c2ccccc2oc1=O (centres undefined) [phenprocoumon] | 107% |
| Cc1c(C(=O)OCCO)[n+]([O-])c2ccccc2[n+]1[O-] [temodox] | 179% |
| COC1=CC(=O)C[C@@H](C)[C@]12Oc1c(Cl)c(OC)cc(OC)c1C2=O [griseofulvin] | 184% |
| CC(C)CCC[C@@H](C)[C@H]1CC[C@H]2[C@@H]3CC=C4C[C@@H](O)CC[C@]4(C)[C@H]3CC[C@]12C | 138% |
| COc1ccc(C(=O)Nc2ccccc2CCC2CCCCN2C)cc1 (centres undefined) [encainide] | 173% |
| CN(C(=O)C(Cl)Cl)c1ccc(O)cc1 [diloxanide] | 258% |
| CN1CCN2c3ccccc3Cc3ccccc3C2C1 (centres undefined) [Mianserin·HCl] | 29.7% |
| CCC(=O)Oc1ccc2c(c1)CC[C@@H]1[C@@H]2CC[C@]2(C)[C@@H](OC(=O)CC)CC[C@@H]12 | 175% |
| CC(=O)OCC1=C(C(=O)O)N2C(=O)[C@@H](NC(=O)CC#N)[C@H]2SC1 [Celospor] | 78.5% |
| CC(=O)O[C@H]1C[C@@]2(C)[C@@H](C[C@@H](O)[C@H]3[C@@]4(C)CC[C@@H](O)[C@@H](C)[C@@H]4CC[C@@]32C)/C1=C(\CCC=C(C)C)C(=O)O [fusidic acid] | 219% |
| CS(=O)(=O)NC(=O)CCC/C=C\C[C@H]1C(=O)C[C@@H](O)[C@@H]1/C=C/[C@@H](O)COc1ccccc1 [sulprostone] | 67.9% |
| C[C@@H]1C[C@H]2[C@@H]3C[C@H](F)C4=CC(=O)C=C[C@]4(C)[C@H]3[C@@H](O)C[C@]2(C)[C@@]1(O)C(=O)CO [Paramethasone] | 201% |
| CN1CCN(c2cc3c(cc2F)c(=O)c(C(=O)O)cn3-c2ccc(F)cc2)CC1 | 49.8% |
| CC(=O)O[C@]1(C(C)=O)CC[C@H]2[C@@H]3C=C(Cl)C4=CC(=O)CC[C@]4(C)[C@H]3CC[C@@]21C | 218% |
| O=[N+]([O-])c1nccn1CC(O)CN1CCCCC1 (centres undefined) [pimonidazole] | 85.8% |
| COCCOC(=O)C1=C(C)NC(C)=C(C(=O)OC/C=C/c2ccccc2)C1c1cccc([N+](=O)[O-])c1 (centres undefined) [Cilnidipine] | 333% |
| CC(CN(C)C)CN1c2ccccc2Sc2ccc(C#N)cc21 (centres undefined) [cyamemazine] | 333% |
| Nc1nc2c([nH]1)c(=O)n(CC1CC1)c(=O)n2CC1CC1 [cipamfylline] | 78.9% |
| CN(C)c1nc(N(C)C)nc(N(C)C)n1 [altretamine] | 341% and 202% |
| CC(=O)N[C@@H](C=O)[C@@H](O)[C@H](O)[C@H](O)CO | 175% |
| C[C@H]1COc2c(N3CCN(C)CC3)c(F)cc3c(=O)c(C(=O)O)cn1c23 [levofloxacin] | 320% and 189% and 288% |

In the list so far, 2 contain a nitro group on carbon.

| SMILES | percent viability |
| --- | --- |
| O=[N+]([O-])c1nccn1CC(O)CN1CCCCC1 (centres undefined) [pimonidazole] | 85.8% |
| COCCOC(=O)C1=C(C)NC(C)=C(C(=O)OC/C=C/c2ccccc2)C1c1cccc([N+](=O)[O-])c1 (centres undefined) [Cilnidipine] | 333% |
